These are yes or no findings as the source states them, for the method shown. In cells and extracts the contact can be indirect. Some results given as binding are weak or reduced against the parent protein; the word gives no strength.

By UniProt entry, the sequences of proteins in these tests, tags left out.
UniProt Q04207: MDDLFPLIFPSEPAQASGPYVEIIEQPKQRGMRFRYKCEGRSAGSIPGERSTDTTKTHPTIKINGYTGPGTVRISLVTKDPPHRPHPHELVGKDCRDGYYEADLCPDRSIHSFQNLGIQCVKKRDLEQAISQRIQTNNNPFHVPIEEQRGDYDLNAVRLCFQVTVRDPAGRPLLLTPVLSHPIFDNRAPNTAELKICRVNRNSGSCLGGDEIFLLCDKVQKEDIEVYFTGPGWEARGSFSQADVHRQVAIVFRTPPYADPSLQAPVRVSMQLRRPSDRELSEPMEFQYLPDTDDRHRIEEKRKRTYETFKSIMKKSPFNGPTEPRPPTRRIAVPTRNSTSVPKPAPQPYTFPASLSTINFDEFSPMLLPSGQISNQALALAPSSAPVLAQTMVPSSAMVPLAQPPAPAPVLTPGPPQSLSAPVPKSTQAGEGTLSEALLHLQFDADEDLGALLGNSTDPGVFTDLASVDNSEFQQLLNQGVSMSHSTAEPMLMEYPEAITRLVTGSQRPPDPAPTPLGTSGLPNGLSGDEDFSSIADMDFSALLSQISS
UniProt Q61501: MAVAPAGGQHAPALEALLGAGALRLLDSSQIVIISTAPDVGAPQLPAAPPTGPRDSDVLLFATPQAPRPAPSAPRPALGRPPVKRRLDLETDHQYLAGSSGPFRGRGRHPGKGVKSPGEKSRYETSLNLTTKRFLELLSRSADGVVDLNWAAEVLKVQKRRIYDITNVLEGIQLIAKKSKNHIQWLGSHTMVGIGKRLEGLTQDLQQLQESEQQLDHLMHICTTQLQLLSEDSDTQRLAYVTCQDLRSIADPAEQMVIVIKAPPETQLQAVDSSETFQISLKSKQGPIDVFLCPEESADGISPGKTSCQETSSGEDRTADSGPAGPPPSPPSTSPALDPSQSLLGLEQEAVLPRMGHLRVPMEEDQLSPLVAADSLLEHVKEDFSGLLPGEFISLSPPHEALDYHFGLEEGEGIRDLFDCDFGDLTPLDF

The target in the experiment is p65 subunit of NF-κB (mouse heart) (mouse (endogenous in heart)) (UniProt Q04207). Nature of the experiment: co-IP; protein extracts of heart of TNF1.6 or wild-type mice precipitated with anti-p65, blotted with anti-E2F1.

Turning to “E2F1 (mouse heart) (from UniProt Q61501 1-430)”, the binding result is “binds”.

The values are drawn from PMC3100304.
